PubChem BioAssay AID1259405 | NCATS, 2018
Purpose: 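Silenced genes that increase secreted GFP made by CHO cells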 (primary screen). System: Chinese hamster CHO-K1 ovary cells with stable secreted eGFP expression. Knock-down reagent: single siRNA against mouse genes, 0.8 pmol siRNA per well (2 µl of 400 nM stock). Duration: 3 days. Measurement: 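Percent of the per-plate non-targeting control median for intracellular GFP per well by laser scanning cytometry and for cell viability by ATP luminescence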. Scale: GFP, % of control: higher = more GFP per well, higher productivity; viability (ATP), % of control: higher = more viable cells (more ATP). Call rule: 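a knock-down is called active if GFP reaches 120% or more of non-targeting control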.
The deposit covers about 50,000 reagents; below is an unselected part. About 4,000 of them (8%) were called active. 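Mouse siRNA library applied to hamster cells; one well for each siRNA.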 Entries without a mark were called inactive. Reagents against one gene are numbered here.

gene knocked down	siRNA no.	GFP, % of control	viability (ATP), % of control
Nab1	1	87.2	79.6
Nab1	2	97.8	99.2
Nqo2	1	77.1	68.4
Nqo2	2	62.4	63.1
Tas2r105	1	63.9	67.8
Tas2r105	2	62.4	75.9
Tas2r105	3	89.5	99.3
Aatf	1	66.3	86.6
Aatf	2	82.5	71.1
Rmi1	1	105	74.1
Rmi1	2	114	63.1
Rmi1	3	75.2	78.8
Rnasel	1	78.5	124
Rnasel	2	49.4	47
Imp4	1	51.5	67.8
Imp4	2	124 (active)	53
Imp4	3	119	77.7
H3c3	1	61	81.4
H3c3	2	86.7	84.8
H3c3	3	62.5	69.7
Chrnb4	1	30.1	32.2
Chrnb4	2	76.3	52.6
Chrnb4	3	59.3	59.9
Etos1	1	108	105
Etos1	2	126 (active)	99.3
Etos1	3	137 (active)	106
Havcr1	1	70.6	72.1
Havcr1	2	156 (active)	90.9
Adgrg1	1	55.2	69.9
Adgrg1	2	80.6	65.5
Adgrg1	3	75.7	67.5
Sema3f	1	97	83.9
Sema3f	2	85.3	97.2
Sema3f	3	73.1	71.5
Dnase2a	1	147 (active)	86.1
Dnase2a	2	62.6	84.7
Dnase2a	3	79.1	69.2
Il17b	1	59.7	36.8
Il17b	2	41.8	32
Il17b	3	68.1	56.4
Notum	1	86.6	107
Notum	2	94.7	87
Notum	3	107	114
Sh3rf2	1	90.7	92.9
Sh3rf2	2	46.9	60.6
Sh3rf2	3	76.3	77.8
Slc38a10	1	99.1	67.2
Slc38a10	2	51.2	30.4
Slc38a10	3	81.7	95.7
Efhd1	1	76.4	53.4
Efhd1	2	84.4	62.4
Efhd1	3	132 (active)	92
Mib2	1	61.7	55.7
Mib2	2	86.8	79.5
Mib2	3	108	104
Cfl1	1	92.8	89.4
Cfl1	2	59.8	53.9
Cfl1	3	99.4	81.7
Arhgap22	1	85.2	73.8
Arhgap22	2	68.7	70.7
Arhgap22	3	90.1	125
Cdk8	1	67.7	68.4
Ncbp3	1	71.8	98.2
Ncbp3	2	86.2	81.6
Ncbp3	3	31.1	41.7
Tdp1	1	102	104
Tdp1	2	73.5	66.1
Tdp1	3	72.4	76.9
Dnai1	1	39.7	33.3
Dnai1	2	60.8	57.5
Vmn1r33	1	97.2	89.5
Vmn1r33	2	85.9	93.7
Vmn1r33	3	62.4	89
Pola2	1	118	124
Pola2	2	82.1	87.2
Bmx	1	110	93.1
Bmx	2	103	74.4
Bmx	3	82.3	70.5
Kat2b	1	134 (active)	94.8
Kat2b	2	91.4	129
Kat2b	3	82.4	89.1
Tmco6	1	22.8	29.4
Tmco6	2	64.5	60.7
Tmco6	3	92.2	55.8
Dennd2b	1	75	82.9
Dennd2b	2	74.7	101
Dennd2b	3	148 (active)	89.2
Zcchc18	1	56.7	57.9
Zcchc18	2	47.1	68.8
Zcchc18	3	118	174
Vmn1r80	1	64.8	33.8
Vmn1r80	2	77.2	88.8
Vmn1r80	3	57.4	90.7
Srms	1	58.9	79.5
Vdac2	1	67	105
Vdac2	2	106	78.7
Vdac2	3	90.8	77.7
Slc11a2	1	31.4	24.9
Slc11a2	2	49.2	64.7
Slc11a2	3	96.9	83.3
Plbd1	1	98.8	71
Plbd1	2	99.9	100
Plbd1	3	72.7	53.7
Rxrg	1	98.7	74.7
Rxrg	2	122 (active)	78.9
Rxrg	3	67.4	75.9
Or5b113	1	74.8	71.3
Or5b113	2	66.8	90.6
Or5b113	3	71.2	71.3

Already shown: entries from further up.
gene knocked down	siRNA no.	GFP, % of control	viability (ATP), % of control
Efhd1	2	84.4	62.4
Efhd1	3	132 (active)	92
Mib2	1	61.7	55.7
Mib2	2	86.8	79.5
Mib2	3	108	104
